Results are given in words; binding and its absence hold for the method and conditions named.

The experiment has as its target MamE (residues 108-728), soluble form with the N-terminal membrane anchor removed (Magnetospirillum magneticum AMB-1) (UniProt Q2W8Q8). Briefly: SEC. In general terms: SEC sorts molecules by how far they enter the pores of the column.

B1: MamE (residues 108-728), soluble form with the N-terminal membrane anchor removed (enzyme, UniProt Q2W8Q8 108-728)
chain: VDFGPAPIGAGGPFSSVVTLLRNSVVAVTASSANGQAMPDPLGLANPDGLPHFANPATRSVENIGTGVIVRNDGFIVTNYHVVRGANSVFVTVQDDVGSTRYSAEIIKMDEALDLALLKVAPKTPLTAAVLGDSDGVQVADEVIAIGTPFGLDMTVSRGIISAKRKSMVIEGVTHSNLLQTDAAINQGNSGGPLVISNGTVVGINTAIYTPNGAFAGIGFAVPSNQARLFILDEVGWLPTSTAEGASMGLVAMQRPMGGGVGAAGPAIFAGTRAPHTDGRQNMDCTTCHDLIPAGNGRPAPMMPIAAPIPPPPIPMGAVSPHTDGRQNMNCANCHQMLGGAAPIAAPGLGGGAYRFAQPPGSLAINIQGPRGGQSTAAGTGRVTLLGAALTPMSQRLGAQTGVPVGRGVFISGVTPNTPAATAGLRPGDVLLKVDGRPVRLPEEVSAIMVEMHAGRSVRLGVLRDGDVRNMTLVAGPAGLAAAAVQAPAIADMAQPPMGGMAPTAPGMVAVPGGPAVMPKPPTEFNWLGMEIETFQAPRPITGVPGAVPVPGAKGAQVAEVLVGSRAAVAGLQANDLILEVNNRPVAGPARLDAAIKGATNAGQQILLKVNRNGQEFWIVL
modifications: heme loading of the c-type cytochrome motifs in the periplasm
As to B1, the binding result is “no binding”.

Source of the values: article doi:10.1101/047555.
